Data reported in PubChem BioAssay AID1487 (National Center for Advancing Translational Sciences (NCATS), 2009).
Some of the results follow. These are further read-outs of the screen, such as a control signal, another cell line or another target. No call is given for them. Compounds called inactive in the main read-out are mostly missing here. Potencies come from curve fits of mixed quality, noted in brackets.

Experiment: qHTS Assay for Modulators of Lamin A Splicing
Details: HeLa LMNA splicing GFP/RFP minigene ratio, 48 h
Procedure, shortened: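 Read-out is the ratio of GFP to DsRed2 object intensity, acquired by 488 nm laser-scanning cytometry on HeLa lamin A-EGFP minigene reporter cells. Compound incubation 48 hrs at 37 °C in Opti-MEM with 2% FBS; DMSO 0.5% final.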

[1] = measured here: GFP splicing reporter channel
[2] = measured here: RFP viability control channel

Row | SMILES | AC50 [1] | AC50 [2]
1 | CCOc1ccc(N2CC(NC(=O)c3ccc(Cl)cc3)CC2=O)cc1 (stereo not given) | 6.31 µM [rising, partial curve, poor fit] | 
2 | CCNC(=O)C12CCC(C)(C(=O)O1)C2(C)C (stereo not given) | 35.5 µM [rising, single point] | 
3 | Cc1ccc(S(=O)(=O)Nc2nc3ccccc3nc2Nc2cccc(S(=O)(=O)N3CCCC3)c2)cc1 | 0.00447 µM [falling, full curve, poor fit] | 2.82 µM [falling, full curve, poor fit]
4 | O=c1c(/C=N/O)coc2ccc3ccccc3c12 |  | 6.31 µM [falling, partial curve, poor fit]
5 | Cc1nc(NC(C)c2ccccc2)c2c3c(sc2n1)CCC3 (stereo not given) |  | 35.5 µM [rising, single point]
6 | O=C(CCCN1C(=O)/C(=C/c2cccc(Br)c2)SC1=S)Nc1ccccn1 |  | 7.94 µM [rising, partial curve, poor fit]
7 | CCc1cc2c(=O)nc3n(c2s1)Cc1ccccc1/C3=C(/O)c1cccc([N+](=O)[O-])c1 |  | 10 µM [rising, partial curve, poor fit]
8 | O=C(CCNc1cc(Cl)cc(Cl)c1)c1cccs1 | 20 µM [falling, single point] | 
9 | Cc1cccc(N(CC(=O)NC2CCCC2)C(=O)c2nsc(Cl)c2Cl)c1C | 0.1 µM [rising, partial curve, poor fit] | 
10 | NC(CO)(CO)CO | 35.5 µM [falling, single point] | 0.355 µM [falling, partial curve, poor fit]
11 | N#Cc1nc(-c2cccc(Cl)c2)oc1NCc1cccnc1 | 12.6 µM [rising, single point] | 11.2 µM [rising, partial curve]
12 | CCCNC(=O)CN1C(=O)NC(CCc2ccccc2)C1=O (stereo not given) |  | 3.16 µM [rising, single point]
13 | COc1cc2c(cc1OC)C(c1cc3ccccc3oc1=O)=NC(C)(C)C2 |  | 15.8 µM [rising, partial curve]
14 | COc1cc(SC#N)ccc1N=Cc1c(C)[nH]n(-c2ccc(C)c(C)c2)c1=O | 25.1 µM [falling, partial curve] | 22.4 µM [falling, partial curve, poor fit]
15 | COc1cc(OC)cc(-c2nnc(Nc3nc4c(F)cccc4s3)o2)c1 | 2.82 µM [rising, partial curve] | 3.16 µM [rising, single point]
16 | CCOc1ccc(CCNC(=O)Cn2c(-c3cccs3)cc3ccccc32)cc1 | 11.2 µM [rising, single point] | 12.6 µM [rising, partial curve]
17 | C/C(=N\Nc1ccc([N+](=O)[O-])cc1)c1ccc(-n2nncc2C)cc1 |  | 35.5 µM [rising, single point]
18 | Cc1onc(-c2ccccc2Cl)c1C(=O)N/N=C(\N)COc1ccc(Cl)cc1 |  | 28.2 µM [rising, single point]
19 | CCOCCCNS(=O)(=O)c1ccc(NC(=O)c2ccc([N+](=O)[O-])cc2Cl)cc1 | 35.5 µM [rising, single point] | 31.6 µM [rising, single point]
20 | COc1ccc(C)cc1NC(=O)CSc1nnc(-c2cc3cccc(OC)c3o2)n1N | 25.1 µM [rising, single point] | 

Fetched by compound from above:
Row | SMILES | AC50 [1] | AC50 [2]
17 | C/C(=N\Nc1ccc([N+](=O)[O-])cc1)c1ccc(-n2nncc2C)cc1 |  | 35.5 µM [rising, single point]
10 | NC(CO)(CO)CO | 35.5 µM [falling, single point] | 0.355 µM [falling, partial curve, poor fit]
15 | COc1cc(OC)cc(-c2nnc(Nc3nc4c(F)cccc4s3)o2)c1 | 2.82 µM [rising, partial curve] | 3.16 µM [rising, single point]
16 | CCOc1ccc(CCNC(=O)Cn2c(-c3cccs3)cc3ccccc32)cc1 | 11.2 µM [rising, single point] | 12.6 µM [rising, partial curve]
11 | N#Cc1nc(-c2cccc(Cl)c2)oc1NCc1cccnc1 | 12.6 µM [rising, single point] | 11.2 µM [rising, partial curve]

Later entries.

Row | SMILES | AC50 [1] | AC50 [2]
21 | C=C(C)CC(c1ccccc1)N(C(C)=O)c1ccco1 (stereo not given) |  | 6.31 µM [falling, partial curve]
22 | Cc1ccc(NC(=S)N(CCCN(C)C)Cc2cc3cc4c(cc3[nH]c2=O)OCO4)c(C)c1 |  | 0.0251 µM [falling, full curve, poor fit]
23 | Cc1cccc(/C=C/C(=O)c2ccc(NC3=NCCCS3)cc2)c1 | 12.6 µM [falling, partial curve] | 35.5 µM [falling, single point]
24 | O=[N+]([O-])c1cc(Cl)cc(/C=N/NC(=S)Nc2cc(S(=O)(=O)N3CCOCC3)ccc2Cl)c1O | 35.5 µM [falling, single point] | 14.1 µM [falling, partial curve, poor fit]
25 | CCOc1ccc(-n2ccnc2SCC(=O)Nc2cc(C)ccc2C)cc1 | 28.2 µM [falling, partial curve] | 
26 | COc1ccc(OC)c(S(=O)(=O)Nc2ccc(O)c3ccccc23)c1 | 35.5 µM [falling, single point] | 
27 | COc1cc(N=Cc2c(O)[nH]c3ccccc23)cc(OC)c1OC |  | 20 µM [rising, partial curve]
28 | COc1cccc(-n2c(SCc3cccc(C)c3)nc3c([nH]c4ccccc43)c2=O)c1 | 12.6 µM [falling, partial curve] | 17.8 µM [falling, partial curve, poor fit]
29 | COc1ccccc1NC(=O)c1cc2ccc(O)cc2o/c1=N\O |  | 15.8 µM [rising, single point]
30 | CCCc1nc(SCC(=O)N2c3ccccc3CC2C)c2c(C)c(C)sc2n1 (stereo not given) |  | 3.55 µM [rising, single point]
31 | COc1cc(C(=O)OC2CCCCC2=O)cc(OC)c1C (stereo not given) |  | 3.98 µM [rising, full curve, poor fit]
32 | COCn1c(COc2ccc3ccccc3c2)nc2ccccc21 |  | 31.6 µM [rising, single point]
33 | Nc1nc(CSC(=S)N2CCN(c3ccccc3)CC2)nc(Nc2ccc(F)cc2)n1 | 10 µM [rising, single point] | 22.4 µM [rising, single point]
34 | CCOc1ccccc1NC(=O)COC(=O)CC(C)(C)CC1=NS(=O)(=O)c2ccccc2N1 |  | 0.0355 µM [rising, full curve, poor fit]
35 | N#Cc1ccc(-n2c(-c3ccccc3)nnc2-c2ccccc2)cc1C#N |  | 28.2 µM [rising, single point]
36 | CCOC(=O)c1c(-c2ccc(OC)cc2)csc1/N=C/C1=C(O)CCCC1=O | 10 µM [rising, partial curve] | 12.6 µM [rising, partial curve]
37 | CC(NC(=O)C12CC3CC(CC(C3)C1)C2)C(=O)N/N=C/C1=C(N2CCOCC2)C(=C\c2ccccc2)/CC1 (stereo not given) |  | 20 µM [rising, partial curve, poor fit]
38 | Cc1ncc[nH]1 | 2.51 µM [falling, single point] | 
39 | Cc1ccc(-n2c(C)cc(C(=O)CSc3nnnn3C)c2C)cc1 |  | 12.6 µM [rising, partial curve]
40 | CCCCNC(=S)Nc1ccc(C(F)(F)F)cc1 | 31.6 µM [falling, partial curve] | 

Row | SMILES | AC50 [1] | AC50 [2]
41 | COc1ccc(NC(=O)CSc2nnc(-c3ccncc3)n2-c2ccccc2)cc1 | 5.62 µM [rising, single point] | 
42 | Cn1c(CCc2ccccc2)n[nH]c1=S | 35.5 µM [falling, single point] | 35.5 µM [falling, single point]
43 | O=C(CSc1n[nH]c(-c2ccc(F)cc2)n1)N1CCN(c2ccc(F)cc2)CC1 | 0.447 µM [rising, full curve, poor fit] | 
44 | CC(=O)COc1ccc2c(-c3cccc([N+](=O)[O-])c3)cc(=O)oc2c1 |  | 8.91 µM [rising, partial curve, poor fit]
45 | CCS(=O)(=O)n1nc(-c2ccc(Cl)cc2)nc1SCc1ccccc1 | 31.6 µM [rising, single point] | 35.5 µM [rising, single point]
46 | Cc1ccc(S(=O)(=O)N(C)CC(=O)OCC(=O)N2CCCC2=O)cc1 |  | 6.31 µM [rising, partial curve]
47 | Cc1cccc(N2CCN(C(=O)NCc3ccc(Cl)cc3)CC2)c1 |  | 31.6 µM [rising, single point]
48 | S=c1nc(-c2csc3c2CCCC3)[nH][nH]1 | 0.158 µM [falling, full curve] | 
49 | COc1cc(NC(=O)COC(=O)Cc2ccc(-c3ccccc3)cc2)cc(OC)c1 | 14.1 µM [rising, single point] | 
50 | COc1ccc2nc(/N=C(\N)NC(=O)Nc3ccccc3)nc(C)c2c1 |  | 35.5 µM [rising, single point]
51 | Oc1ccc(Cl)cc1-c1cc(-c2cccc(Br)c2)n[nH]1 | 17.8 µM [rising, partial curve] | 12.6 µM [rising, partial curve]
52 | CCS(=O)(=O)CCSC(=N)N |  | 35.5 µM [rising, single point]
53 | Cc1nc2ccn(Cc3ccco3)c(=O)c2cc1C(=O)NCc1ccc(Cl)cc1 |  | 0.2 µM [rising, full curve, poor fit]
54 | CCN(c1ccc(OC)cc1)S(=O)(=O)c1ccc2[nH]c3c(c2c1)CCCCC3 | 11.2 µM [falling, partial curve] | 11.2 µM [falling, partial curve]
55 | Cc1cccc(NC(=O)COc2cccc3c2CCN(Cc2ccccc2)C3=O)c1C |  | 35.5 µM [rising, single point]
56 | CN1/C(=C\C(=O)c2cccs2)C(C)(C)c2ccccc21 |  | 35.5 µM [rising, single point]
57 | COc1ccc(C2(CNC(=O)c3cc([N+](=O)[O-])cc([N+](=O)[O-])c3)CCCC2)cc1OC | 35.5 µM [rising, single point] | 
58 | Cc1c(C(=O)c2ccc(Cl)cc2Cl)cnc2cc3c(cc12)OCO3 | 22.4 µM [rising, single point] | 35.5 µM [rising, single point]
